The nature of the assay: qHTS Assay for Lipid Storage Modulators in Drosophila S3 Cells.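 On cell number change: cells counted by Cell Tracker Red CMTPX staining in the red channel.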 The settings on record: BODIPY lipid droplet fluorescence, 18-24 h; for cell number change: measured here: cell count max response, cells fed with added oleic acid. The procedure, abridged:
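Drosophila S3 cells loaded with oleic acid (400 uM, as added) and compounds at several concentrations; lipid droplets imaged by 488-nm laser-scanning cytometry, 500–530 nm intensity and object ratio to cell channel. Percent activity normalized to 20 uM Triacsin C.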

The mark [1] stands for this setting: measured here: lipid fluorescence (Fed channel) AC50, cells fed with added oleic acid.
The mark [2] stands for this setting: measured here: cell number channel AC50, cells fed with added oleic acid.

Some of the results follow. Further columns of the screen follow, without active or inactive calls. Compounds called inactive in the main read-out are mostly missing here. Potencies come from curve fits of mixed quality, noted in brackets.

By AC50 is commonly meant the midpoint of the concentration-response curve, whichever way the signal moves. A higher AC50 goes with weaker potency.

As for `Cc1ccc(CC(=O)Nc2nc3ccccc3s2)cc1`, the cell number change was -16.8%. The concentration at half-maximal activity (AC50) under setting [1] was 29.1 µM [falling, single point].
For the compound `Cc1ccc(Cl)c(OCC(=O)NC2CCN(Cc3ccccc3)CC2)c1`, the cell number change was found to be 16.2%. Moreover, the concentration at half-maximal activity (AC50) under setting [2] is 0.411 µM [rising, full curve, poor fit].
As to `Cc1ccc(-n2c(SCC(=O)Nc3ccc4c5c(cccc35)CC4)nc(O)c(C)c2=O)cc1`, the cell number change came out at 11.2%.
For `NNC(=O)c1cc(-c2ccc(O)cc2)nc2ccc(Br)cc12`, the cell number change worked out at 21.8%. Besides, the AC50 under setting [1] was 2.06 µM [rising, partial curve, poor fit].
As to `Cc1ccc(NC(=O)CN(C)C(=O)c2cc3c(s2)CCCCC3)cc1`, the cell number change was -8.62%. Also, the AC50 under setting [1] was 14.6 µM [falling, single point].
As to `c1ccc(Oc2nnc(-c3cccs3)c3ccccc23)cc1`, the AC50 under setting [1] was 4.11 µM [rising, full curve, poor fit].
For the compound `O=C(O)C1C2C=CC(C2)C1C(=O)NCc1ccoc1` (stereo not drawn), the cell number change was -10.1%. Under setting [1], the AC50 is 4.61 µM [falling, full curve, poor fit].
As to `Cc1ccc(Cl)cc1NC(=O)COC(=O)c1ccc(COc2ccc3c(C)cc(=O)oc3c2)cc1`, the AC50 under setting [1] is 0.58 µM [rising, partial curve, poor fit].
On to `CCOC(=O)c1c(C)[nH]c(C(=O)CN2C(=O)NC(C)(C)C2=O)c1C`, for which the cell number change is -69%. The concentration at half-maximal activity (AC50) under setting [2] was 20.6 µM [falling, single point].
Consider `O=C(NCC1CCCO1)C1CCCN1C(=O)Nc1ccc(Cl)c(Cl)c1` (stereo not drawn), for which the cell number change is -6.38%. For the same compound, the concentration at half-maximal activity (AC50) under setting [1] is 0.092 µM [falling, full curve, poor fit].
`CCCCN1C(=O)N(C)C2NC(=S)NC21` (stereo not drawn): the cell number change was found to be 11.5%.
For `CCCN(CCC)C(=O)CSc1nc2ccsc2c(=O)n1NC(=O)c1ccccc1`, the cell number change is 2.96%. The AC50 under setting [1] is 29.1 µM [rising, single point].
With `CCn1c(SCc2nc3ccccc3s2)nnc1-c1cccs1`, the AC50 by setting is: under setting [2], 2.06 µM [rising, partial curve]; under setting [1], 2.31 µM [rising, partial curve].
As to `CCN1CCN(c2ccc(NC(=O)COc3ccccc3Cl)cc2)CC1`, the cell number change was found to be 2.31%. In addition, the half-maximal activity concentration (AC50) under setting [1] was 0.164 µM [rising, full curve, poor fit].
In the case of `Cc1nc(NC(=O)CC(C)C)sc1-c1csc(Nc2ccc(Cl)cc2)n1`, the cell number change was -31.5%. Moreover, the half-maximal activity concentration (AC50) under setting [2] was 20.6 µM [falling, single point]. The AC50 under setting [1] was 20.6 µM [falling, single point].
Consider `CC1CCCN(CCCNC(=O)C2CCCN(c3ncnc4c3nc3n4CCCCC3)C2)C1` (stereo not drawn), for which the cell number change is 28.2%. Moreover, under setting [1], the AC50 is 29.1 µM [falling, single point].
For the compound `COc1ccc(C(C)=O)cc1CN1C(=O)NC2(CCCC2)C1=O`, the cell number change worked out at 11%.
For the compound `Cc1c(OC(C)C(=O)O)ccc2c(-c3ccccc3)cc(=O)oc12` (stereo not drawn), the cell number change was -15.9%. Besides, the concentration at half-maximal activity (AC50) under setting [1] was 4.11 µM [falling, full curve, poor fit].
`Cn1c(=O)c(C(=O)CSc2nnc(Nc3ccccc3)s2)c(N)n(Cc2ccccc2)c1=O`: the cell number change was -21%.
`CC(=O)c1ccc(NS(=O)(=O)c2cc(-c3cnc(C4CC4)o3)ccc2C)cc1`: the cell number change was -7.08%. Besides, the concentration at half-maximal activity (AC50) under setting [1] was 6.51 µM [falling, single point].
For the compound `O=C(CCNC(=O)c1ccc(Br)cc1)NCCCN1CCOCC1`, the cell number change is 1.75%. Under setting [1], the half-maximal activity concentration (AC50) is 6.51 µM [falling, single point].
`COc1ccc([C@H]2CC(=O)C=C(/C=C/c3ccc(Cl)cc3)C2)cc1`: the cell number change was determined as 5.65%. The AC50 under setting [1] was 6.51 µM [falling, single point].
On to `CCc1ccc(Nc2n[n+](-c3ccccc3)c(-c3cccc(Cl)c3Cl)s2)cc1`, for which the cell number change was 3.04%. Besides, the concentration at half-maximal activity (AC50) under setting [1] is 1.03 µM [rising, full curve, poor fit].
On to `CC(=O)C1=C(C)NC(SCC(=O)c2ccc(Cl)cc2Cl)=C(C#N)C1c1ccco1` (stereo not drawn), for which the cell number change was -57.9%. The half-maximal activity concentration (AC50) under setting [2] is 14.6 µM [falling, partial curve]. Moreover, the AC50 under setting [1] is 18.4 µM [falling, partial curve].
For `CN1N=C2c3ccccc3CCC2C1c1ccc(F)cc1` (stereo not drawn), the cell number change was 10.9%. Moreover, the concentration at half-maximal activity (AC50) under setting [1] was 0.0411 µM [rising, full curve, poor fit].
As to `CCCCn1c(N)c(N(CCOC)C(=O)c2ccco2)c(=O)[nH]c1=O`, the cell number change is -40.1%. Also, the half-maximal activity concentration (AC50) under setting [2] is 29.1 µM [falling, single point].
Take `COc1ccc(CC(NC(C)=O)C(=O)NC2CCN(C(=O)c3ccccc3F)CC2)cc1` (stereo not drawn): the cell number change was found to be 21.3%.
As to `CN(C)c1ccc(N=Cc2cccn2C)cc1`, the cell number change is -33.3%. In addition, the AC50 under setting [2] was 2.31 µM [falling, full curve]. Moreover, the concentration at half-maximal activity (AC50) under setting [1] was 6.51 µM [falling, partial curve].
As to `Cc1onc(-c2c(F)cccc2Cl)c1C(=O)c1ccccc1O`, the cell number change was -23.5%. The AC50 under setting [1] is 23.1 µM [falling, single point].
For `N#C/C(=C/Nc1ccccc1C(=O)O)C(N)=O`, the cell number change was -27.4%. Further, the concentration at half-maximal activity (AC50) under setting [1] was 0.231 µM [falling, full curve, poor fit].
With `COc1cc(NC(=O)c2ccc(CNc3c(N4CCCC4)c(=O)c3=O)cc2)cc(OC)c1OC`, the cell number change stood at 0.367%. The AC50 under setting [1] was 0.103 µM [falling, full curve, poor fit].
For `COc1ccc(Cl)cc1NC(=O)c1ccco1`, the cell number change stood at 8.05%. Besides, under setting [1], the AC50 was 1.84 µM [rising, partial curve].
On to `NS(=O)(=O)c1ccc(NC(=O)COC(=O)CC2Sc3ccccc3NC2=O)cc1` (stereo not drawn), for which the cell number change is -6.14%. In addition, under setting [2], the AC50 is 6.51 µM [falling, single point].
Turning to `COc1ccccc1C(=O)Nc1c(C(=O)N(CCN(C)C)Cc2ccco2)oc2ccccc12`, the cell number change was 3.04%. Also, the half-maximal activity concentration (AC50) under setting [1] is 5.8 µM [rising, single point].
Turning to `O=C1CC(c2ccncc2)c2cc3c(cc2N1)OCO3` (stereo not drawn), the AC50 under setting [2] was 1.84 µM [rising, partial curve] and the concentration at half-maximal activity (AC50) under setting [1] was 2.59 µM [rising, partial curve].
In the case of `Nc1ccccc1Oc1c(F)c(F)c(Oc2ccccc2N)c(F)c1F`, the cell number change was -28.9%. In addition, the half-maximal activity concentration (AC50) under setting [1] was 29.1 µM [falling, single point].
`COc1ccc(CNC(=O)CCc2nnc3ccc(NCCCN4CCCC4=O)nn23)cc1`: the cell number change amounted to 4.89%. Under setting [1], the AC50 was 29.1 µM [rising, single point].
On to `CCOC(=O)N1CCC(NC(=O)c2cc3c(=O)n(C)c4ccccc4c3n2C)CC1`, for which the cell number change was -6.07%. Also, the AC50 under setting [1] was 29.1 µM [falling, single point].
As for `COc1ccccc1CNC(=O)COc1ccc(S(=O)(=O)N2CCOCC2)cc1C`, the cell number change was -21%.
